Reference: PMC5996148
Values joined by “and” are separate entries in the source; they are usually repeats but may differ in a detail not shown here. Identical values can stand only once. Some of the results follow.

How the values were obtained:
Test in all cases: protein microarray (ProtoArray v5.0), streptavidin-Alexa Fluor 647
Details in all cases: 3'-biotin; 20 mM Tris (pH 7.5), 5 mM MgCl2, 100 mM KCl, 0.1% Tween-20, A/T-rich and random oligonucleotide blockers; temperature not stated; high values mean tight binding
GYPE (human) = system: GYPE (human)
GYS1 (human) = system: GYS1 (human)
GZMM (human) = system: GZMM (human)
Galectin-3 (human) = system: Galectin-3 (human)
[1] = system: Gamma-soluble NSF attachment protein (human)
[2] = system: Ganglioside GM2 activator (human)
[3] = system: Geranylgeranyl pyrophosphate synthetase (human)
[4] = system: Glucose-6-phosphate 1-dehydrogenase (human)
[5] = system: Glucose-6-phosphate translocase (human)
[6] = system: Glucose-fructose oxidoreductase domain-containing protein 1 (human)
[7] = system: Glutamate decarboxylase 1 (human)
[8] = system: Glutamate decarboxylase 2 (human)
[9] = system: Glutaminyl-tRNA synthetase (human)
[10] = system: Glutathione S-transferase A2 (human)
[11] = system: Glutathione S-transferase A4 (human)
[12] = system: Glutathione S-transferase Mu 5 (human)
[13] = system: Glycolipid transfer protein (human)
Glycoprotein Xg (human) = system: Glycoprotein Xg (human)
[14] = system: Glycosyltransferase 1 domain-containing protein 1 (human)
[15] = system: Golgi SNAP receptor complex member 1 (human)

## GGGAGGCTGAGGCAGG [G4-1 biotinylated (PQS2)]
GYPE (human)
  binding signal: -0.299 z-score
GYS1 (human)
  binding signal: -0.324 z-score
GZMM (human)
  binding signal: -0.265 z-score
Galectin-3 (human)
  binding signal: -0.349 z-score
[1]
  binding signal: -0.333 z-score
[2]
  binding signal: -0.346 z-score
[3]
  binding signal: -0.347 z-score
[4]
  binding signal: -0.323 z-score
[5]
  binding signal: -0.353 z-score
[6]
  binding signal: -0.366 z-score
[7]
  binding signal: -0.336 z-score
[8]
  binding signal: -0.358 z-score
[9]
  binding signal: -0.352 z-score and -0.37 z-score
[10]
  binding signal: -0.32 z-score
[11]
  binding signal: -0.358 z-score
[12]
  binding signal: -0.338 z-score
[13]
  binding signal: -0.374 z-score
Glycoprotein Xg (human)
  binding signal: -0.278 z-score
[14]
  binding signal: -0.323 z-score
[15]
  binding signal: -0.318 z-score
